From publication PMC7876005 (Communications Biology, 2021)
These are yes or no findings as the source states them, for the method shown. Some entries that bind do so weakly or less than the wild type.

Molecular target: T1, regulatory subunit of acetolactate synthase complex (Ilv6) (S. cerevisiae (endogenous in yeast lysate)) (UniProt P25605)
T1 sequence: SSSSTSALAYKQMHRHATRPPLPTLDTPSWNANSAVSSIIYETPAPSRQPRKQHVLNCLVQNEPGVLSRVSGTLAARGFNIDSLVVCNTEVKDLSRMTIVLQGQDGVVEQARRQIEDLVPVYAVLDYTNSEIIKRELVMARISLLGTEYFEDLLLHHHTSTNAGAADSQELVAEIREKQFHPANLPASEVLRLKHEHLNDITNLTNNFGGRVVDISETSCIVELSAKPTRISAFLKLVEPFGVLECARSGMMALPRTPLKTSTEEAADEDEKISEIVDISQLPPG
Experiment: SEC; PROMIS: native soluble lysate of YSBN2 in logarithmic phase separated on Sepax SRT SEC-300, 50 mM AmBIC pH 7.5, 150 mM NaCl, 1.5 mM MgCl2, 4 °C; fractions analysed by LC-MS proteomics and metabolomics; co-elution (PCC ≥ 0.7) defines putative interactors

B1: catalytic subunit of acetolactate synthase complex (Ilv2) (enzyme, UniProt P07342 91-687)
chain: GLTGGQIFNEMMSRQNVDTVFGYPGGAILPVYDAIHNSDKFNFVLPKHEQGAGHMAEGYARASGKPGVVLVTSGPGATNVVTPMADAFADGIPMVVFTGQVPTSAIGTDAFQEADVVGISRSCTKWNVMVKSVEELPLRINEAFEIATSGRPGPVLVDLPKDVTAAILRNPIPTKTTLPSNALNQLTSRAQDEFVMQSINKAADLINLAKKPVLYVGAGILNHADGPRLLKELSDRAQIPVTTTLQGLGSFDQEDPKSLDMLGMHGCATANLAVQNADLIIAVGARFDDRVTGNISKFAPEARRAAAEGRGGIIHFEVSPKNINKVVQTQIAVEGDATTNLGKMMSKIFPVKERSEWFAQINKWKKEYPYAYMEETPGSKIKPQTVIKKLSKVANDTGRHVIVTTGVGQHQMWAAQHWTWRNPHTFITSGGLGTMGYGLPAAIGAQVAKPESLVIDIDGDASFNMTLTELSSAVQAGTPVKILILNNEEQGMVTQWQSLFYEHRYSHTHQLNPDFIKLAEAMGLKGLRVKKQEELDAKLKEFVSTKGPVLLEVEVDKKVPVLPMVAGGSGLDEFINFDPEVERQQTELRHKRTGGKH
  binding: binds
